{
  "source": "paper PMC6857076",
  "about": "(Pharmacology Research & Perspectives, 2019)",
  "test_system": "JAK-dependent cytokine receptors",
  "test": "Integrated modeling: calculated cytokine receptor inhibitory concentrations (ICxx)",
  "set-up": "species or system human",
  "conditions": "calculated ICxx at clinically meaningful doses, Figure 1",
  "data": [
    {"smiles": "CCS(=O)(=O)N1CC(CC#N)(n2cc(-c3ncnc4[nH]ccc34)cn2)C1", "note": "[Baricitinib]", "values": [
      {"measurement": "Inhibition (ICxx) of JAK2/TYK2-mediated cytokine receptors (IL-12, IL-23, and EPO) vs other JAK inhibitors", "result": "numerically greater"}
    ]}
  ]
}
